Source: patent JP2020027089A
Results are given in words; binding and its absence hold for the method and conditions named. Some results given as binding are weak or reduced against the parent protein; the word gives no strength.

Target: T1, ヒトMK(ピキア酵母GS115で発現・精製した組換えヒトミッドカイン、免疫原) (human) (UniProt P21741)
T1 sequence (looked up): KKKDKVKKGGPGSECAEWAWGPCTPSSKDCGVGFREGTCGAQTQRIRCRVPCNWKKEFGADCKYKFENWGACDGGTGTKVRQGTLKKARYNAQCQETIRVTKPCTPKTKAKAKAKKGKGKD
Assay: ELISA, hybridoma culture supernatant on plate-coated MK antigen

B1: 抗ヒトMKモノクローナル抗体#12 (antibody, V domains shown)
VH: QVQLQQPGTELVKPGASVKLSCKASGYTFTSYWMHWVKQRPGHGLDWIGNINPHNGGTNYNEKFNNRATLTVDKSSTTAYMQLSSLTSEDSADYYCVRGGHYDEGYFEYWGQGTTLTVSS
VL: DIQMTQSPASLSASVGETVTITCRASGNIHNYLAWQQKQGKSPQFLVYNAKTLADGVPSRFSGSGSGTQFSLKINSLQPEDFGNYYCQHFWSTPFTFGSGTKLEIK
Q: B1 was tested. Which binding did it give?
A: binds
